Laboratory results as given in PubChem BioAssay AID720591 (Broad Institute, 2013).
Among all 1,200 compounds or so, about 60 (5%) were called active. Not shown: some 1% with an inconclusive outcome.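 Rule for the calls: active = Decreasing signal and fitted IC50 at most twice the top valid tested dose; inconclusive = Bad fit or a level curve showing 30 to 70% inhibition; inactive = the rest.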 Some of the results follow. Entries with a potency or affinity are not part of this list.

The chains behind the UniProt entries cited, without tags or fusion partners. Where a name states a change or a piece, a line headed by the entry shows the natural chain unless it says otherwise.
UniProt Q9NXA8: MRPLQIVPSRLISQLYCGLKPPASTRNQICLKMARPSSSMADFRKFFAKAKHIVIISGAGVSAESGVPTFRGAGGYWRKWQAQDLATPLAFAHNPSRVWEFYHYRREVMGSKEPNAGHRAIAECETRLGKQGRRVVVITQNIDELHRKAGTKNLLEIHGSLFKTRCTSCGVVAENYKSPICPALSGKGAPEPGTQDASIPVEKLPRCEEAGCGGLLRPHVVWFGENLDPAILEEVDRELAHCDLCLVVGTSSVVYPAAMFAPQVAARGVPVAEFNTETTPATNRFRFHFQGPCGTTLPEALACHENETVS

Biological target: NAD-dependent protein deacylase sirtuin-5, mitochondrial (Homo sapiens) (UniProt Q9NXA8)
Assay: SIRT5 desuccinylase inhibitors, dose response, biochemical, fluorescence imaging, cherry-pick, set 5 (AID 720591);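 note: 0% = median of neutral control wells and -100% = median of positive control wells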
Conditions: Purified SirT5, succinyl-peptide AMC, trypsin-coupled fluorescence; at 15 µM (top of the series) unless noted

SMILES	activity change, negative = inhibition
CNc1nc(NCc2ccccc2)c2sccc2n1	inactive: -17.5%
CCN(Cc1ccccc1)S(=O)(=O)CCNC(=O)c1ccc(OC)cc1	inactive: 20.6%
Cc1ccc(Cc2c(-c3cccc(Br)c3)nc3c(Cl)cc(C(F)(F)F)cn23)cc1	inactive: -25.5%
Cc1nn(-c2ccccc2)c2[nH]c(=O)cc(C(F)F)c12	inactive: 1.24%
CCCCNc1nc2ccccc2nc1NS(=O)(=O)c1ccc(F)cc1	inactive: -3.73%
OCCOCCn1c(C(CO)Nc2nc(-c3ccccc3Br)cs2)nc2ccccc21 (centres undefined)	inactive: -20.5%
Cc1cc(C)n2nc(C(=O)OCC(=O)Nc3ccc(C)c(F)c3)nc2n1	inactive: 1.93%
COCCNC(=O)CCCn1c(=O)c2cc(OC)c(OC)cc2n(CC(=O)c2cccc(OC)c2)c1=O	inactive: -7.61%
O=C(OCCc1cc2ccccc2c(=O)o1)c1ccc(F)cc1	inactive: 2.85%
COC(=O)C1CN(C(=O)COc2ccc(C)cc2)c2ccccc2O1 (centres undefined)	inactive: 4.16%
Cc1ccc(CNC(=O)COC(=O)CCC(=O)c2cccs2)cc1	inactive: 5.49%
C[C@H](CO)N1C[C@H](C)[C@@H](CN(C)Cc2ccccn2)Oc2ncc(Br)cc2C1=O	inactive: -20.5%
C[C@H](NC(=O)C[C@@H]1C=C[C@@H](NC(=O)CN2CCOCC2)[C@@H](CO)O1)c1ccccc1	inactive: 7.94%
CCOC(=O)C1CCc2c(ccc3ccccc23)N1CCC#N (centres undefined)	inactive: 12.2%
CCOC(=O)C1(Cc2ccccc2)CCCN(C2CCN(C(C)=O)CC2)C1 (centres undefined)	inactive: 0.363%
COc1cc2c(cc1OC)CN1CCc3cc(OC)c(OC)cc3C1C2 (centres undefined)	inactive: 9.52%
CCCCCCN1CCN(C2CN(C3CCCCC3)S(=O)(=O)C2)CC1 (centres undefined)	inactive: 24.6%
CCC1CCCCN1CCCNC(=O)c1c(O)nc2ccccn2c1=O (centres undefined)	inactive: 10.2%
O=C(Cc1ccc(Cl)cc1)Nc1ccc(C(=O)N2CCCCC2)cc1	inactive: -15.9%
Cc1cc(F)ccc1S(=O)(=O)Nc1ncnc2sccc12	inactive: -27.5%
O=C(COC(=O)C1CC2CCCC(C1)C2=O)NNC(=O)c1ccccc1F (centres undefined)	inactive: -33.5%
CC(OC(=O)CC1CCCCC1)C(=O)Nc1ccc(F)cc1 (centres undefined)	inactive: 1.33%
CC(C)C1C(=O)N(Cc2cn(Cc3ccco3)nn2)CCS(=O)(=O)N1Cc1ccc(-c2ccc(F)cc2)cc1 (centres undefined)	inactive: -13.4%

SMILES	activity change, negative = inhibition
CCc1cc2c(=O)c(-c3nc4ccccc4n3C)coc2c(CN2CCCCC2)c1O	inactive: 32.2%
COc1ccccc1CN(C)S(=O)(=O)c1cccs1	inactive: -11.8%
CCOc1cccc(CN2CCCC(N3CCN(c4cccc(Cl)c4)CC3)C2)c1O (centres undefined)	inactive: 6.16%
Cc1ccc(S(=O)(=O)NC(=O)c2ccc(Br)o2)cc1	inactive: -23%
CCC(NC(=O)NCc1ccccc1)(C(F)(F)F)C(F)(F)F	inactive: 26.1%
O=C(Nc1cccc(-c2cn3ccccc3n2)c1)c1cc2ccccc2oc1=O	inactive: -6.87%
Cc1ccc(NC(=O)CNC(=O)c2ccc(OC(F)F)cc2)cc1S(=O)(=O)N1CCCCCC1	inactive: -33.5%
Cc1cc(C)c(NC(=O)CN(C)C(=O)CNC(=O)c2cccs2)c(C)c1	inactive: -17.8%
COC(=O)c1ccc2nc(-c3ccc(C)cc3)c(Cc3ccccc3)n2c1	inactive: 6.46%
Cc1ccc(S(=O)(=O)N2CCC(C(=O)OCC(=O)N(C)Cc3ccccc3)CC2)cc1C	inactive: -3.55%
COc1ccccc1OCC(=O)OCc1cc(-c2ccco2)on1	inactive: -24.6%
Cc1cc2nc(CSc3ccccc3)cc(=O)n2[nH]1	inactive: -15.6%
CC(C)CCN1CCN(Cc2cnc(N3CCCC3)s2)CC1CCO (centres undefined)	inactive: 10.1%
CCCCNC(=O)C[C@@H]1C[C@@]2(C(=O)OC)CC(C)(C)CC=C2N(Cc2ccco2)C1=O	inactive: 2.48%
CCC(CO)NC(=O)c1ccccc1C(F)(F)F (centres undefined)	inactive: 1.57%
COc1ccc(C2=NN(C(=O)CCC(=O)O)C(c3ccc(OC)cc3)C2)cc1 (centres undefined)	inactive: 2.15%
Cc1ccccc1OCC(O)CN1CCN(CC(O)COc2ccccc2C)CC1 (centres undefined)	inactive: 8.37%
Cc1cccc(C)c1NC(=O)CN(Cc1ccccc1)Cc1ccccc1	inactive: 17.6%
Cc1cc(C)c(OCC(=O)NCC(C)(C)N2CCOCC2)c(C)c1	inactive: -12.2%
COC(=O)C1=C(C(=O)OC)[C@@H]2Nc3ccccc3[C@@]23C[C@@H](C(=O)OC)N(C(=O)CC(C)C)C3=N1	inactive: -25.6%
CCOC(=O)CN(C(=O)CSc1nnc(COc2ccc(OC)cc2)n1CC)c1ccccc1	inactive: -25.8%
CCCCOc1ccc(S(=O)(=O)NNC(=O)c2cc3ccccc3o2)cc1	inactive: -2.05%
CCc1nc2ccc(C(=O)N(CC)CCN(C)C)cn2c1N(CC)C(=O)NCCc1ccccc1	inactive: 9.33%

SMILES	activity change, negative = inhibition
COc1ncnc2c1ncn2CCCN1CCN(Cc2cccc3ccccc23)CC1	inactive: 8.16%
COc1ccc(-c2nnn(CC(=O)N(Cc3ccccc3Cl)C(C(=O)NCC3CCCO3)c3ccco3)n2)cc1 (centres undefined)	inactive: -5.83%
O=C(CNC(=O)c1cccc(F)c1)OCC(=O)N1CCN(C(=O)c2ccco2)CC1	inactive: 4.92%
CN(Cc1ccccc1)S(=O)(=O)c1cccc(C(=O)O)c1	inactive: -24.7%
O=C1OCCOC2CCCc3oc(C4=CCCCC4)c1c32 (centres undefined)	inactive: -23.7%
CC(=O)Nc1ccc(NC(=O)CN2CCN(c3ccccn3)CC2)cc1	inactive: -3.57%
O=C(Nc1cccc(S(=O)(=O)N2CCOCC2)c1)C1CC1	inactive: -26.7%
CCN(CC)c1ccc(S(=O)(=O)N2CCOCC2)cc1NC(=O)Nc1ccccc1	inactive: -11.5%
COc1ccc(NC(=O)CN(c2ccc(Cl)cc2)S(C)(=O)=O)cc1OC	inactive: 3.15%
Cc1cccc(N(CC(=O)NC(C)(C)C)C(=O)CS(=O)CC(=O)Nc2ccc(F)cc2)c1 (centres undefined)	inactive: -28.7%
O=C(C[C@H]1C[C@H](C(=O)N2CCOCC2)[C@@]2(CCC3CCCC3)c3[nH]c4cc(-c5ccco5)ccc4c3CCN2C1=O)NCc1ccco1	inactive: -32%
O=C(NCc1ccccn1)C1CCC(=O)N(Cc2ccc(Cl)cc2)C1 (centres undefined)	inactive: -22.8%
COC(=O)[C@]12CCCCC=C1N(Cc1cccc3ccccc13)C(=O)[C@H](CC(=O)NCC1CCCCC1)C2	inactive: -6.36%
CN(Cc1ccccc1)c1nc2c(c(=O)[nH]c(=O)n2C)n1Cc1ccccc1	inactive: -17.1%
CC(=O)O[C@H]1CC[C@@]2(C)[C@@H](CC[C@H]3[C@@H]4CC[C@H](C(C)O)[C@@]4(C)CC(=O)[C@@H]32)C1 (some centres undefined)	inactive: 5.98%
Clc1cc(Br)ccc1OCCN1CCOCC1	inactive: 5.8%
O=C(O)c1ccc(OCC(O)Cn2c3ccccc3c3ccccc32)cc1 (centres undefined)	inactive: 6.95%
Cc1c(C(=O)c2ccc(N(C)C)cc2)c2ccccn2c1CCC#N	inactive: -5.98%
O=C(O)c1ccc2oc(=O)c(S(=O)(=O)c3ccccc3)cc2c1	inactive: 22.8%
COc1ccc(Nc2oc(COc3ccccc3OC)nc2C#N)cc1	inactive: 18.8%
CCC(C(=O)NCCCN1CC(C)CC(C)C1)n1nc(C)c2sc3ccccc3c2c1=O (centres undefined)	inactive: -26.1%
CCOc1ccc(C(=O)CSCCC(=O)O)cc1	inactive: 7.71%
O=S(=O)(Nc1ncccn1)c1cc(Cl)ccc1Cl	inactive: -6.52%

At a glance, some entries already given:
SMILES	activity change, negative = inhibition
CCC(NC(=O)NCc1ccccc1)(C(F)(F)F)C(F)(F)F	inactive: 26.1%
O=C(Nc1cccc(-c2cn3ccccc3n2)c1)c1cc2ccccc2oc1=O	inactive: -6.87%
Cc1ccc(NC(=O)CNC(=O)c2ccc(OC(F)F)cc2)cc1S(=O)(=O)N1CCCCCC1	inactive: -33.5%
Cc1cc(C)c(NC(=O)CN(C)C(=O)CNC(=O)c2cccs2)c(C)c1	inactive: -17.8%
COC(=O)c1ccc2nc(-c3ccc(C)cc3)c(Cc3ccccc3)n2c1	inactive: 6.46%
Cc1ccc(S(=O)(=O)N2CCC(C(=O)OCC(=O)N(C)Cc3ccccc3)CC2)cc1C	inactive: -3.55%
COc1ccccc1OCC(=O)OCc1cc(-c2ccco2)on1	inactive: -24.6%
Cc1cc2nc(CSc3ccccc3)cc(=O)n2[nH]1	inactive: -15.6%
CC(C)CCN1CCN(Cc2cnc(N3CCCC3)s2)CC1CCO (centres undefined)	inactive: 10.1%
CCCCNC(=O)C[C@@H]1C[C@@]2(C(=O)OC)CC(C)(C)CC=C2N(Cc2ccco2)C1=O	inactive: 2.48%
CCC(CO)NC(=O)c1ccccc1C(F)(F)F (centres undefined)	inactive: 1.57%
COc1ccc(C2=NN(C(=O)CCC(=O)O)C(c3ccc(OC)cc3)C2)cc1 (centres undefined)	inactive: 2.15%
Cc1ccccc1OCC(O)CN1CCN(CC(O)COc2ccccc2C)CC1 (centres undefined)	inactive: 8.37%
Cc1cccc(C)c1NC(=O)CN(Cc1ccccc1)Cc1ccccc1	inactive: 17.6%
Cc1cc(C)c(OCC(=O)NCC(C)(C)N2CCOCC2)c(C)c1	inactive: -12.2%
COC(=O)C1=C(C(=O)OC)[C@@H]2Nc3ccccc3[C@@]23C[C@@H](C(=O)OC)N(C(=O)CC(C)C)C3=N1	inactive: -25.6%
CCOC(=O)CN(C(=O)CSc1nnc(COc2ccc(OC)cc2)n1CC)c1ccccc1	inactive: -25.8%
CCCCOc1ccc(S(=O)(=O)NNC(=O)c2cc3ccccc3o2)cc1	inactive: -2.05%
CCc1nc2ccc(C(=O)N(CC)CCN(C)C)cn2c1N(CC)C(=O)NCCc1ccccc1	inactive: 9.33%
COc1ncnc2c1ncn2CCCN1CCN(Cc2cccc3ccccc23)CC1	inactive: 8.16%
COc1ccc(-c2nnn(CC(=O)N(Cc3ccccc3Cl)C(C(=O)NCC3CCCO3)c3ccco3)n2)cc1 (centres undefined)	inactive: -5.83%
O=C(CNC(=O)c1cccc(F)c1)OCC(=O)N1CCN(C(=O)c2ccco2)CC1	inactive: 4.92%
CN(Cc1ccccc1)S(=O)(=O)c1cccc(C(=O)O)c1	inactive: -24.7%
O=C1OCCOC2CCCc3oc(C4=CCCCC4)c1c32 (centres undefined)	inactive: -23.7%
CC(=O)Nc1ccc(NC(=O)CN2CCN(c3ccccn3)CC2)cc1	inactive: -3.57%
O=C(Nc1cccc(S(=O)(=O)N2CCOCC2)c1)C1CC1	inactive: -26.7%

Following part.

SMILES	activity change, negative = inhibition
Cc1ccc(NC(=O)c2cnn(-c3ccccc3)c2C)c(C)c1	inactive: -25.8%
O=C(CS(=O)c1ccc(Br)cc1)N1CCOCC1 (centres undefined)	inactive: -25.4%
Cc1cccc(OCC(=O)NNC(=O)C2CCCCC2C(=O)O)c1 (centres undefined)	inactive: 5.18%
CNC(=O)C1CC(=O)N(c2ccc(OCC(=O)NCc3ccccc3)cc2)C1 (centres undefined)	inactive: -28.2%
COC(=O)C1=NNC(C(=O)c2ccco2)C1c1ccccc1 (centres undefined)	inactive: 17.5%
CSc1nsc(SCC(=O)Nc2ccc(Cl)c(C(=O)O)c2)n1	inactive: -17.9%
COc1ccc(NC(=O)CN2CCN(c3ccccn3)CC2)cc1Cl	inactive: 5.95%
CCCN1C(C)C(C(=O)OCC)=CN(Cc2ccc(Br)cc2)S1(=O)=O (centres undefined)	inactive: -5.53%
CCn1ccnc1CN(C)Cc1cn(-c2ccc(C)cc2)nc1-c1ccc(F)cc1	inactive: -10.5%
CCOC(=O)C1CCN(C(=O)CC2C(=O)N(Cc3ccccc3)C(C)c3nc4ccccc4n32)CC1 (centres undefined)	inactive: -10.7%
COC(CNC(=O)CC1C(=O)N(Cc2ccccc2)C(C)c2nc3ccccc3n21)OC (centres undefined)	inactive: 16.8%
Cc1ccc(S(=O)(=O)NC(=O)Nc2ccc(C)cn2)cc1	inactive: -30.6%
Cc1cc(NC(=O)c2ccno2)no1	inactive: -15.9%
Cc1ccc(NS(=O)(=O)c2ccc3c(c2)N(C)CCO3)cc1	inactive: -1.07%
CCCCCCCCCCCCC(NC(C)=O)(C(=O)OCC)C(=O)OCC	inactive: -29.9%
Cc1ccccc1N1C(=O)C2ON(c3ccccc3)C(c3ccco3)C2C1=O (centres undefined)	inactive: -10.9%
CN(C(=O)c1cccc(NC(=O)Cc2ccc(NC(=O)C3CCN(C(=O)C4CCCCC4)CC3)cc2)c1)C1CCCCC1	inactive: 8.34%
NC(=O)CCN1CCC(c2nc3ccccc3s2)CC1	inactive: -1.08%
O=C(NC1CCCCC1)C(c1ccco1)N(C(=O)c1csnn1)c1cccc(Cl)c1 (centres undefined)	inactive: -0.984%
CCOc1cccc(CN2CCC(N3CCC(C(=O)NCC4CCCO4)CC3)CC2)c1 (centres undefined)	inactive: 0.75%
